Results are given in words; binding and its absence hold for the method and conditions named. Binding seen in cells or lysates may run through a third protein. Some results given as binding are weak or reduced against the parent protein; the word gives no strength.

Chains of the proteins cited; added tags and fusions are not shown.
UniProt P25963: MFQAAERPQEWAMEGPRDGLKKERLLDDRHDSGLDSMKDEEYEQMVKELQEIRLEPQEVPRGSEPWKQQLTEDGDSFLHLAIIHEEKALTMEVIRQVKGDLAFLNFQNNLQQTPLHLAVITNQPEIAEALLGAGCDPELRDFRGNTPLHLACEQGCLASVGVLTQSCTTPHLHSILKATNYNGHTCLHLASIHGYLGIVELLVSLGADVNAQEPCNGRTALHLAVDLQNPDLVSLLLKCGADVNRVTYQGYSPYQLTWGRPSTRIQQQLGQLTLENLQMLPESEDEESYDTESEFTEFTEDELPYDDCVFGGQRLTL

In this assay the target is biotinylated H4 (aa1-23) peptide, K residues mutated to A (H4K5,8,12,16A) (UniProt P62805). Put plainly: pull-down.

As for “non-SUMOylated p-IκBα (≈37 kDa), endogenous in HCT-116 cells (from UniProt P25963 1-317)”, the binding result was “binds”.
